Test results published in PubChem BioAssay AID1259415 (National Center for Advancing Translational Sciences (NCATS), 2018).
Several values for one entry are separate records, joined by “and”; a condition that tells them apart may be missing. Equal entries are not always repeated. Hit rate of the full screen: of about 410,000 compounds, about 18,000 (4.4%) were called active. Inconclusive results, whose numbers are uncertain, are shown with a selection of clear calls. Rule as the data show it: active = activity change below about -60%; inconclusive = no clear call, values can overlap the other calls; inactive = above about -39%.

Assay: qHTS Assay for inhibitors of the human cytomegalovirus (HCMV)
Settings: HFF cells, HCMV-luciferase reporter, 72 h; at 57.5 µM; stronger effect = lower value
Method in brief: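 After 16 h attachment at 37C, HFF cells received test compound and HCMV-luciferase (1 PFU/cell); reporter luminescence read 72 h later, data normalized against buffer-only and known inhibitor Salinomycin.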
% is scaled to controls: 0 for no effect and ±100 for the full control effect.

SMILES	activity change, negative = inhibition
COc1ccc(N(C(=O)c2cc3ccccc3oc2=O)C2C=CS(=O)(=O)C2)c(OC)c1 (stereo not given)	active: -61.2%
COC(=O)C1(O)CC(c2ccccc2)C(C(=O)c2ccc(Cl)cc2)N1c1ccccc1 (stereo not given)	active: -77.2%
CCN(CC(=O)Nc1ccccc1C(F)(F)F)C(=O)c1cc(-c2cccs2)nn1-c1ccccc1	inconclusive: -54%
Cc1nnc(SCC(=O)N2CCCC2)n(N)c1=O	inconclusive: -45.8%
Cc1cccc(C)c1NS(=O)(=O)c1ccc(NC(=O)c2ccc(Cl)c([N+](=O)[O-])c2)cc1	active: -65.7%
Cc1ccc(C)c(OCCn2c(-c3ccc(Cl)cc3)nc3ccccc3c2=O)c1C	inactive: 36.6%
CC1CCN(CCCNC(=O)C2CCC(=O)N2C2CCCC2)CC1 (stereo not given)	inconclusive: -59%
CC(C)COc1ccc(CNC(=S)NCc2ccccc2)cc1	active: -81.9%
Nn1c(SCc2ccc([N+](=O)[O-])cc2)nc2ccccc2c1=O	inconclusive: -49%
O=C(CCl)Nc1cccc(-c2cnc3ccccc3n2)c1	active: -98.1%
NC(=O)CC(NC(=O)c1ccccc1)c1ccc(N2CCC(Cc3ccccc3)CC2)c([N+](=O)[O-])c1 (stereo not given)	active: -67.2%
Cc1ccccc1C(=O)c1cccn1CC(=O)NCc1ccccc1	inactive: -17.1% and inactive: -3.27%
CSc1ccc(C(=O)/C=C/c2ccc(N)cc2)cc1	inactive: 24.2%
Cc1nc(SC(C)C(=O)Nc2ccccc2C)cc(-c2ccccc2)n1 (stereo not given)	inconclusive: -57.4%
O=C(NCc1ccccn1)c1cn(-c2ccccc2)nc1-c1ccc(Cl)cc1	inconclusive: -56.7%
CC(=O)c1c(CSc2ccccc2)oc2ccc(O)c(CN(C)C)c12	active: -69.5%
CCCNC(=O)c1cccc(Cn2nc(C)c(Br)c2C)c1	inactive: 25%
CCOC(=O)C1CCCN(C(=S)Nc2ccc(OC)cc2)C1 (stereo not given)	active: -67%
O=C(Nc1cccc(F)c1)c1ccc(Cn2cc([N+](=O)[O-])cn2)o1	inconclusive: -46.1%
CC(=O)c1ccc(S(=O)(=O)N2CCn3cccc3C2c2ccc(C)cc2)cc1 (stereo not given)	inactive: -20.1%
CN(c1cccc(NC(=O)c2ccc(N(C)S(=O)(=O)c3ccccc3)cc2)c1)S(C)(=O)=O	active: -72.4%
CCOC(=O)Cn1c(=O)n(CC2CCCO2)c2nc(-c3ccc(C)cc3)nc(C(N)=O)c21 (stereo not given)	inactive: 4.37%
Cc1ccc2nc3c(cc(C(=O)NCC4CCCO4)c(=N)n3C(C)C)c(=O)n2c1 (stereo not given)	inactive: -11.2%
CC(C)c1ccc(C2=CC(c3ccc(C(C)C)cc3)n3nnnc3N2)cc1 (stereo not given)	inactive: 4.45%
COC(=O)Cc1[nH]n(-c2ccccc2)c(=O)c1C(C)=Nc1ccccc1	inconclusive: -52.5%
Cc1ccc(S(=O)(=O)N2CCN(C(=O)COC(=O)c3ccccc3Cl)CC2)c(C)c1	inconclusive: -44.6%
Cc1ccccc1Nc1c(-c2ccccn2)nc2c(C)cccn12	inactive: -39.7%
Cc1cc(NC(=O)CSc2nccn2-c2cccc(C)c2C)no1	inactive: -8.14%

SMILES	activity change, negative = inhibition
Cn1c(=O)n(CCO)c(=O)c2c1nc(Br)n2Cc1ccccc1	inconclusive: -46.7%
CN(C)C(=O)c1ccc(-c2cc3c(Nc4cccc(Oc5ccccc5)c4)nccc3n2C)cc1	inconclusive: -44.4%
COc1ccc(OC)c(CN2CCC(Cc3ccccc3)CC2)c1	inactive: -7.61%
Cc1ccc(C)c(CN2CCCN(Cc3ccc(F)cc3)S2(=O)=O)c1	inactive: 0%
FC(F)(F)c1cccc(Nc2cc(-c3ccccc3)nc3ncnn23)c1	inconclusive: -47.4%
COc1ccccc1CNC(=O)COC(=O)Cc1ccc(Cl)cc1	inconclusive: -40.9%
Cc1cc(C)nc(N/N=C/c2cc(C)n(CC(F)(F)F)c2C)n1	active: -74.7%
COc1ccc(C(=O)NC(=S)Nc2ccc(CN3CCCCC3)cc2)cc1Cl	inconclusive: -48%
CCOC(=O)c1cc(-c2ccccc2)sc1NC(=O)C(C)C	inactive: 10.1%
O=C1c2ccccc2C(=O)N1CCC#Cc1ccc2cc(C3(O)CCCCC3)oc(=O)c2c1	inconclusive: -47.7%
CCOC(=O)C(NC(=O)CCl)(Nc1sc(C)c(CC)c1C#N)C(F)(F)F (stereo not given)	inconclusive: -50.9%
FC(F)Oc1ccc(-c2c[n+]3c(n2-c2ccccc2)CCCCC3)cc1	inconclusive: -41.6%
CC(OC(=O)c1cnccn1)C(=O)Nc1nc(-c2cccc([N+](=O)[O-])c2)cs1 (stereo not given)	inconclusive: -54%
CC(C)(C)c1ccc(NC(=O)C2CCCN(c3cnccn3)C2)cc1 (stereo not given)	inconclusive: -41%
COCCCn1c(=O)c2ccccc2n(CC(=O)N2CCCc3ccccc32)c1=O	inconclusive: -58.1%
CCc1ccc(/C=C2\SC(=S)N(CCC(=O)N3CCN(C)CC3)C2=O)cc1	inactive: -36.1%
O=C(Nc1cccc(F)c1)C1CCCN(S(=O)(=O)c2cnc[nH]2)C1 (stereo not given)	active: -61.8%
CC1CCCN(CCCNC(=O)c2ccc3c(c2)N(Cc2ccccc2F)C(=O)c2ccccc2S3(=O)=O)C1 (stereo not given)	inconclusive: -51.5%
COc1ccccc1CNC(=S)NC1CCCCC1	active: -73.7%
CCOC(=O)C1(CCc2ccccc2)CCN(Cc2csc(C(C)=O)c2)CC1	inconclusive: -40.7%
O=S(=O)(c1ccc(SCCOc2ccc(Br)cc2)nc1)N1CCCC1	inconclusive: -55%
O=C(COc1ccccc1)NCCSCc1ccco1	inactive: -3.51%
CN(c1ccc(C(=O)Nc2nccs2)cc1)S(=O)(=O)c1ccccc1	inconclusive: -46.4%
COC(=O)CCC(=O)N(CCN(C(=O)CCC(=O)OC)c1ccccc1)c1ccccc1	active: -95.5%
CC1CN(C(=O)CCc2ccccc2)C(C)CN1C(=O)CCc1ccccc1 (stereo not given)	inactive: 15.8%
CC(=O)c1cc2c(cc1N/C(=N/S(=O)(=O)c1ccc(Cl)cc1)c1ccc(F)cc1)OCO2	inactive: -13.6%
CN1CCN(c2nc([N+](=O)[O-])nn2C)CC1	inconclusive: -44.1%

Looked up above.
For activity change, negative = inhibition, COC(=O)Cc1[nH]n(-c2ccccc2)c(=O)c1C(C)=Nc1ccccc1 has the entry inconclusive: -52.5%
For activity change, negative = inhibition, CC1CCN(CCCNC(=O)C2CCC(=O)N2C2CCCC2)CC1 (stereo not given) has the entry inconclusive: -59%
